The series relates to MDCK II cells. Conditions: after incubation for 100 min.

`CN1CC[C@]23c4c5ccc(O)c4O[C@H]2[C@@H](O)C=C[C@H]3[C@H]1C5` [Morphine]: the “Amount of transepithelial movement in the direction of apical to basal” value was 6%.

The values are drawn from PMC3093627 (Research in Pharmaceutical Sciences, 2010).
